Test results taken from paper PMC5642611.
No constants are given. Whether binding was seen depends on the method and setting. In cells and extracts the contact can be indirect. Some binding calls cover weakened binding; strength is not graded here.

Amino acid sequences for entries named in this document (tags omitted).
UniProt Q7TQN4: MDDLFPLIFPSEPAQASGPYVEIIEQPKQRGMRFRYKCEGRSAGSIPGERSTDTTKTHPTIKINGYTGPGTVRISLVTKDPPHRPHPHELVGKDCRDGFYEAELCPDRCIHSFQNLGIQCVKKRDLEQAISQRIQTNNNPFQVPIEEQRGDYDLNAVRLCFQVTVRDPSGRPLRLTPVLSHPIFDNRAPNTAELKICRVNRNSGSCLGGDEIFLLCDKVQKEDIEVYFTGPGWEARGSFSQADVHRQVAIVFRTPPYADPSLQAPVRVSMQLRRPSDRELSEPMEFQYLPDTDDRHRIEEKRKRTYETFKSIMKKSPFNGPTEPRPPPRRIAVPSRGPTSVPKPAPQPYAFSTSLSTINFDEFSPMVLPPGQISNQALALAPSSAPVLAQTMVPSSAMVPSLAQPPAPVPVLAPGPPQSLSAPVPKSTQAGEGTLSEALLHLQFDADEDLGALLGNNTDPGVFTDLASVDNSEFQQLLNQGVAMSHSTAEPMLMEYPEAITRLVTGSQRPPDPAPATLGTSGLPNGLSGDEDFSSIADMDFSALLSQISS
UniProt Q63746: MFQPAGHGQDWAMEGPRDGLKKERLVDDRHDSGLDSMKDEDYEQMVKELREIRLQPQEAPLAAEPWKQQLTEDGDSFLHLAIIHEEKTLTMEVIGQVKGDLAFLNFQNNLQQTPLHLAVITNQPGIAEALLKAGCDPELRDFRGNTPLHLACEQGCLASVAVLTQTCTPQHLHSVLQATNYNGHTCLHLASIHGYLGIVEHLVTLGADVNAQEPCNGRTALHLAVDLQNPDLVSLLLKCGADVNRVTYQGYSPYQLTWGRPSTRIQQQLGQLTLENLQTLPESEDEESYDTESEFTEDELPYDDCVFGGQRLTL

Target: RelA (P65) (rat (endogenous in PC12)) (UniProt Q7TQN4)
Assay: co-IP; endogenous proteins in PC12 lysate; RIPA buffer (50 mM Tris pH 7.4, 150 mM NaCl, 1% NP-40, 0.25% sodium deoxycholate), protein A/G-sepharose, 4°C; cells treated with 0.6 mmol/L CoCl2 or 0.4 mmol/L H2O2 for 24h, with NC, miR-19a mimics or miR-19a mimics plus Flag-CYLD

binding: binds
Substance: IκBα (from UniProt Q63746 1-314)
